Data from patent US12319946B2, “Methods for producing modified bacteria for production of nitroaromatics” (priority 2018, dated 2025).

Tested on: E. coli BL21-GOLD (DE3) and E. coli ΔtrpRtyrApheA
Type: cell-based, Escherichia coli
Conditions: listed as 1-Trp

N[C@@H](Cc1c[nH]c2ccccc12)C(=O)O [L-Trp, L-tryptophan] was tested, and the “free 1-Trp in the fermentation medium” value was 142 ± 25 mg/L.
